These are yes or no findings as the source states them, for the method shown. Binding seen in cells or lysates may run through a third protein. Where a sequence is shown, tags or fusion partners need not be part of it.
Target: Flag-tagged BAG2 (UniProt O95816)
Assay: co-IP; p53-null H1299 cells transfected with expression vectors, lysed in NP-40 buffer 24 h after transfection; IP with anti-p53 (DO-1) or anti-Flag; in Figures 2f and 5c cells treated with MG132 (40 uM) for 6 h

Protein sequences, listed by entry. Tags and fused reporters are not part of them.
UniProt O95816: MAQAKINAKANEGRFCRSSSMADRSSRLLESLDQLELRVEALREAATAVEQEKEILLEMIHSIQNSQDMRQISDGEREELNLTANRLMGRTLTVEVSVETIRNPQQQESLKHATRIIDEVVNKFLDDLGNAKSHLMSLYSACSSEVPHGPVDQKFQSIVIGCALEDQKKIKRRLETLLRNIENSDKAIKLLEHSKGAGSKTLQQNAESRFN

B1: HA-tagged BAG5 (protein, UniProt Q9UL15 1-447)
chain: MDMGNQHPSISRLQEIQKEVKSVEQQVIGFSGLSDDKNYKKLERILTKQLFEIDSVDTEGKGDIQQARKRAAQETERLLKELEQNANHPHRIEIQNIFEEAQSLVREKIVPFYNGGNCVTDEFEEGIQDIILRLTHVKTGGKISLRKARYHTLTKICAVQEIIEDCMKKQPSLPLSEDAHPSVAKINFVMCEVNKARGVLIALLMGVNNNETCRHLSCVLSGLIADLDALDVCGRTEIRNYRREVVEDINKLLKYLDLEEEADTTKAFDLRQNHSILKIEKVLKRMREIKNELLQAQNPSELYLSSKTELQGLIGQLDEVSLEKNPCIREARRRAVIEVQTLITYIDLKEALEKRKLFACEEHPSHKAVWNVLGNLSEIQGEVLSFDGNRTDKNYIRLEELLTKQLLALDAVDPQGEEKCKAARKQAVRLAQNILSYLDLKSDEWEY
- binding: no binding
